Results: PMC5081203
No constants are given. Whether binding was seen depends on the method and setting. Binding can be weak; no strength is given. Where a sequence is shown, tags or fusion partners need not be part of it.

Key:
Experiment in all cases: pull-down; GST-tagged Zasp52 proteins held on glutathione-agarose beads, washed, then rabbit skeletal muscle α-actinin added for 3 hours at 4°C; final washes with 150 mM NaCl and 0.2% Triton X-100; SDS-PAGE and immunoblotting; both purified
[1] = target: T1, GST-Zasp52-STOP155 (Drosophila melanogaster) (UniProt A1ZA47)
T1 sequence: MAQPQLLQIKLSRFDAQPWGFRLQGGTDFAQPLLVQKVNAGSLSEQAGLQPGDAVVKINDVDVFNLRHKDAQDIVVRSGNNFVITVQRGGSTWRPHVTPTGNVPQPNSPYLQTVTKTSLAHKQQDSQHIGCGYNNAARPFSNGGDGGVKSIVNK

[2] = target: T2, GST-Zasp52-STOP143 (Drosophila melanogaster) (UniProt A1ZA47)
T2 sequence: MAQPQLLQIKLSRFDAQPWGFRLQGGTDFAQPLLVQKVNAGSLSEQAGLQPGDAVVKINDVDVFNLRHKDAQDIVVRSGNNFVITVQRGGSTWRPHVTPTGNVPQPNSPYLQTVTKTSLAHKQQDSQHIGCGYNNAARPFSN

[3] = target: T3, GST-Zasp52-PDZ (Drosophila melanogaster) (UniProt A1ZA47)
T3 sequence: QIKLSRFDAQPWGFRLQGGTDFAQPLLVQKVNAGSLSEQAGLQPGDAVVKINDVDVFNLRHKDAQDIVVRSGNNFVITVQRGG

[4] = target: T4, GST-Zasp52-STOP112 (Drosophila melanogaster) (UniProt A1ZA47)
T4 sequence: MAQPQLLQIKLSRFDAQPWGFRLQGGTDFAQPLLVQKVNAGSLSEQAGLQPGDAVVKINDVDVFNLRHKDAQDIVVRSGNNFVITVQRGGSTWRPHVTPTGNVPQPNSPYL

binding [1]: binds
binding [2]: binds
binding [3]: binds weakly
binding [4]: binds weakly
Substance: rabbit skeletal muscle α-actinin (Cytoskeleton)
